PubChem BioAssay AID652272 – Drosophila RNAi Screening Center – 2013

Assay: 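Genome-wide knock-down search for components of Hedgehog signalling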 (primary screen)
System: Drosophila clone 8 (Cl8) cells
Reagents: long dsRNA against Drosophila genes
Read-out: 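Firefly light from a Hedgehog-responsive ptc promoter reporter and Renilla reference light, both read on a plate reader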
Scale: firefly Hh reporter signal: higher = more ptc reporter light; Renilla reference signal: higher = more Renilla control light
Call rule: 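Called a hit if the two-replicate mean z-score lies below -2 or above +3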
Meaning of the calls: active = hit: reporter lowered or raised; inactive = not a hit
In all, the deposit lists about 21,000 reagents; shown is an unselected part of those that have a named target and a result. In the full data, 503 (2.4%) were called active. 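Raw plate light values, not normalised; calls rest on replicate z-scores that were not deposited; hits include reporter decreases as well as increases.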 The numbers tell different reagents against one gene apart. No sequences are given here. Not stated in the record: the amount of reagent, the time to read-out.

gene	dsRNA no.	firefly Hh reporter signal, replicate 1	firefly Hh reporter signal, replicate 2	firefly Hh reporter signal, replicate 3	Renilla reference signal, replicate 1	Renilla reference signal, replicate 2	call
CG13457	1	1.08e5			6183	3094	inactive
Cpr12A	1	81728	1.99e5		2016	8173	inactive
eIF2D	1	56185	2.67e5		14264	6628	inactive
CG13679	1	79336	6.11e5	57239	4292	3682	inactive
CG16717	1	31298	62822	61888	4234	4076	inactive
PpV	1	57410	2.10e5		1293	7386	inactive
beat-Ia	1	82713	43123		1765	4354	inactive
ry	1	97689	1.03e5		3974	4208	inactive
Ugt317A1	1	1.13e5	64196		3269	5830	inactive
Pld	1	1.72e5	73392		6381	2642	inactive
CG13127	1	1.27e5	36274		3148	5168	inactive
CG14354	1	87290	4.66e5		3897	27808	inactive
CR42546	1	84720	70956		1840	6553	inactive
CG7668	1	1.50e5	74576		5813	3080	inactive
Pka-C1	1	45523	59588		3241	3732	active

Continued; the last 2 above are carried over.
gene	dsRNA no.	firefly Hh reporter signal, replicate 1	firefly Hh reporter signal, replicate 2	firefly Hh reporter signal, replicate 3	Renilla reference signal, replicate 1	Renilla reference signal, replicate 2	call
CG7668	1	1.50e5	74576		5813	3080	inactive
Pka-C1	1	45523	59588		3241	3732	active
laza	1	1.46e5	1.23e5		6160	4716	inactive
CG14074	1	99526			2444	2083	inactive
Slbp	1	76539	89842		2602	2912	inactive
CG3534	1	69968	98672		1114	2933	inactive
CG30345	1	97589	2.31e5		2344	9442	inactive
heph	1	7.14e5	2.74e5		30849	5080	inactive
heph	2	4.58e5	2.00e5		21293	3180	inactive
heph	3	62864	1.66e5		2547	6744	inactive
heph	4	59719	1.64e5		2176	6475	inactive
